# Assay results

From PubChem BioAssay record AID1224904 (Broad Institute, 2016).

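Selective DUX4 reporter inhibition in doxycycline-induced 293T-iDUX4 cells, scored as Gaussia percent activity minus Italica percent activity, after a 24-hour treatment. The test concentration is not given here. Percent difference between the Gaussia and Italica channels; more negative values mean more selective suppression of the DUX4 reporter, and higher values mean less activity.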

Values are in %. How 0% and 100% were set is not given here. Common to all entries: measured here: selective DUX4 reporter inhibition. Part of the compounds only, not a random draw; the main read-out is not listed here.

| # | SMILES | Gaussia minus Italica difference (%) |
|---|---|---|
| 1 | `O=C(Cc1ccccc1)N1CC(=O)N2[C@H](C1)[C@@H](c1ccc(-c3ccc(F)cc3)cc1)[C@@H]2CO` | -3.093 |
| 2 | `COc1ccccc1NC(=O)N1C[C@@H](O)COC[C@H]2O[C@H](CC(=O)N3CCC(Cc4ccccc4)CC3)CC[C@@H]21` | -11.74 |
| 3 | `COc1ccc(C#Cc2ccc([C@@H]3[C@H](CO)N4C(=O)CN(C(=O)c5ccc(F)cc5)C[C@@H]34)cc2)cc1` | 16.91 |
| 4 | `N#C[C@@H]1[C@@H](c2ccccc2C2=CCCCC2)[C@@H](CO)N1C(=O)NC1CCCC1` | -14.06 |
| 5 | `COc1cccc(-c2ccc3c(c2)[C@@H]2[C@@H](CCN2S(=O)(=O)c2ccccc2OC)[C@H](CO)N3)c1` | 15.49 |
| 6 | `CN1CCN(C(=O)C[C@@H]2CC[C@@H]3[C@H](COC[C@H](O)CN3Cc3cccc(-c4ccncc4)c3)O2)CC1` | -4.174 |
| 7 | `Cc1ccccc1-c1ccc([C@H]2[C@H]3CN(C(=O)c4cccnc4)CCCCN3[C@H]2CO)cc1` | -5.292 |
| 8 | `CN1c2ccc(-c3cccc(C#N)c3)cc2[C@H]2[C@H](CCN2C(=O)Cc2ccccn2)[C@H]1CO` | -13.26 |
| 9 | `COc1cccc(CN2CC3(C2)CN(C(=O)C2CC2)[C@H](CO)c2[nH]c4cc(OC)ccc4c23)c1` | -18.81 |
| 10 | `COc1cccc(-c2ccc3c(c2)[C@H]2[C@H](CCN2C(=O)c2ccccc2F)[C@H](CO)N3C)c1` | 10.97 |
| 11 | `N#C[C@H]1[C@H](c2ccccc2-c2ccc(F)cc2)[C@@H](CO)N1C(=O)Cc1ccccc1` | -9.272 |
| 12 | `COc1ccccc1S(=O)(=O)N1CC[C@@H]2[C@@H](CO)N(C)c3ccc(-c4ccccc4)cc3[C@@H]21` | -3.208 |
| 13 | `CC(C)CC#Cc1ccc([C@H]2[C@@H](CO)N3C(=O)CN(S(=O)(=O)c4cccc(F)c4)C[C@@H]23)cc1` | -2.769 |
| 14 | `CO[C@@H]1CN(C)C(=O)c2ccc(NC(=O)NC(C)C)cc2OC[C@H](C)N(Cc2ccc(-c3ccccn3)cc2)C[C@H]1C` | -10.52 |
| 15 | `O=C(CC1CC1)N1CC2(C1)[C@H](c1ccccc1)[C@H](CO)N2Cc1cccc(F)c1` | -8.936 |
| 16 | `C[C@@H]1CN([C@H](C)CO)C(=O)c2ccccc2-c2ccccc2CO[C@@H]1CN(C)C(=O)Nc1cccc(F)c1` | -6.404 |
| 17 | `O=C(C[C@H]1CC[C@H]2[C@@H](COC[C@@H](O)CN2Cc2cc(F)cc(F)c2)O1)NC1CCCC1` | -9.401 |
| 18 | `CCC(=O)N1CC2(CCN(Cc3ccc(Cl)cc3)CC2)c2c(n(C)c3cc(OC)ccc23)[C@@H]1CO` | 11.31 |
| 19 | `O=C(C[C@H]1CC[C@@H]2[C@H](COC[C@H](O)CN2C(=O)c2ccccc2)O1)Nc1ccc(-c2ccccc2)cc1` | 2.117 |
| 20 | `Cc1ccccc1-c1ccc(C2[C@@H]3CN(Cc4cncnc4)C[C@H]2N3)cc1` (stereo partly shown) | -8.56 |
| 21 | `COc1ccc2c3c([nH]c2c1)[C@H](CO)N(Cc1nccs1)CC31CCN(C(=O)C2CCCCC2)CC1` | 1.753 |
| 22 | `C[C@H]1CN([C@@H](C)CO)C(=O)c2c(c3ccccc3n2C)-c2ccccc2CO[C@@H]1CN(C)Cc1ccc(F)cc1` | -17.99 |
| 23 | `O=C(C[C@@H]1CC[C@H]2[C@@H](COC[C@H](O)CN2Cc2ccc3c(c2)OCO3)O1)Nc1ccc(-c2ccccc2)cc1` | -3.259 |
| 24 | `COc1ccc2c3c([nH]c2c1)[C@@H](CO)N(C(=O)C1CCC1)CC31CN(Cc2cccc(F)c2)C1` | -10.89 |
| 25 | `C[C@H](CO)N1C[C@H](C)[C@H](CN(C)C(=O)Cc2ccccc2)OCc2ccccc2-c2c(n(C)c3ccccc23)C1=O` | 5.386 |
| 26 | `N#Cc1ccc(-c2ccc([C@@H]3[C@H]4CNC[C@@H]3N4Cc3ccc4c(c3)OCO4)cc2)cc1` | 26.18 |
| 27 | `COc1ccc(-c2ccc3c(c2)[C@@H]2[C@@H](CCN2C(=O)Cc2ccccc2)[C@@H](CO)N3C)cc1` | -1.47 |
| 28 | `COc1ccccc1NC(=O)N[C@@H]1CC[C@H](CC(=O)N2CCC(Cc3ccccc3)CC2)O[C@H]1CO` | -9.031 |
| 29 | `CCCNC(=O)N1CC2(CCN(C(=O)c3cccc(F)c3)CC2)c2c([nH]c3cc(OC)ccc23)[C@@H]1CO` | -3.877 |
| 30 | `O=C(C[C@H]1C[C@@H]2c3cc(NC(=O)c4ccc5c(c4)OCO5)ccc3O[C@@H]2[C@H](CO)O1)NCc1ccc(Oc2ccccc2)cc1` | -15.41 |
| 31 | `O=C(c1ccc2c(c1)OCO2)N1CC2(C1)[C@H](c1ccccc1)[C@H](CO)N2C(=O)C1CCCC1` | 0.1585 |
| 32 | `O=C(NC1CCCC1)N1CC2(C1)[C@@H](c1ccccc1)[C@@H](CO)N2CC1CCCC1` | -10.08 |
| 33 | `C[C@H](CO)N1C[C@H](C)[C@@H](CN(C)Cc2cccc(C(=O)Nc3ccccc3N)c2)OCc2ccccc2-c2c(n(C)c3ccccc23)C1=O` | -3.683 |
| 34 | `O=S(=O)(c1ccccc1F)N1CC[C@H]2[C@H](CO)Nc3ccc(-c4ccc(F)cc4)cc3[C@H]21` | -9.939 |
| 35 | `C[C@H]1CN([C@@H](C)CO)C(=O)c2c(c3ccccc3n2C)-c2ccccc2CO[C@H]1CN(C)S(=O)(=O)c1ccc(F)cc1` | 5.267 |
| 36 | `CO[C@@H]1CN(C)C(=O)c2ccc(NC(=O)Nc3ccc(C(F)(F)F)cc3)cc2OC[C@H](C)NC[C@H]1C` | -7.522 |
| 37 | `Cc1ccccc1-c1ccccc1[C@H]1[C@@H](C#N)N(C(=O)c2cccc(F)c2)[C@H]1CO` | -3.634 |
| 38 | `C[C@H](CO)N1C[C@H](C)[C@@H](CN(C)C(=O)Nc2cccc(Cl)c2Cl)OCc2ccccc2-c2c(n(C)c3ccccc23)C1=O` | 1.189 |
| 39 | `C[C@H]1CN([C@@H](C)CO)C(=O)c2c(c3ccccc3n2C)-c2ccccc2CO[C@H]1CN(C)S(=O)(=O)c1ccsc1` | 7.924 |
| 40 | `COc1ccc(CN2CC3(CN(C(=O)C4CCC4)C3)c3c(n(C)c4cc(OC)ccc34)[C@H]2CO)cc1` | -8.365 |
| 41 | `CCC(=O)N1CCC2(CC1)CN(Cc1cccc(OC)c1)[C@@H](CO)c1[nH]c3cc(OC)ccc3c12` | -8.671 |

Repeated from the top, 4 entries:

SMILES	Gaussia minus Italica difference (%)
O=C(Cc1ccccc1)N1CC(=O)N2[C@H](C1)[C@@H](c1ccc(-c3ccc(F)cc3)cc1)[C@@H]2CO	-3.093
COc1ccccc1NC(=O)N1C[C@@H](O)COC[C@H]2O[C@H](CC(=O)N3CCC(Cc4ccccc4)CC3)CC[C@@H]21	-11.74
COc1ccc(C#Cc2ccc([C@@H]3[C@H](CO)N4C(=O)CN(C(=O)c5ccc(F)cc5)C[C@@H]34)cc2)cc1	16.91
N#C[C@@H]1[C@@H](c2ccccc2C2=CCCCC2)[C@@H](CO)N1C(=O)NC1CCCC1	-14.06